In publication PMC6071836:
These are yes or no findings as the source states them, for the method shown. Binding seen in cells or lysates may run through a third protein.

Protein sequences, listed by entry. Tags and fused reporters are not part of them.
UniProt O43143: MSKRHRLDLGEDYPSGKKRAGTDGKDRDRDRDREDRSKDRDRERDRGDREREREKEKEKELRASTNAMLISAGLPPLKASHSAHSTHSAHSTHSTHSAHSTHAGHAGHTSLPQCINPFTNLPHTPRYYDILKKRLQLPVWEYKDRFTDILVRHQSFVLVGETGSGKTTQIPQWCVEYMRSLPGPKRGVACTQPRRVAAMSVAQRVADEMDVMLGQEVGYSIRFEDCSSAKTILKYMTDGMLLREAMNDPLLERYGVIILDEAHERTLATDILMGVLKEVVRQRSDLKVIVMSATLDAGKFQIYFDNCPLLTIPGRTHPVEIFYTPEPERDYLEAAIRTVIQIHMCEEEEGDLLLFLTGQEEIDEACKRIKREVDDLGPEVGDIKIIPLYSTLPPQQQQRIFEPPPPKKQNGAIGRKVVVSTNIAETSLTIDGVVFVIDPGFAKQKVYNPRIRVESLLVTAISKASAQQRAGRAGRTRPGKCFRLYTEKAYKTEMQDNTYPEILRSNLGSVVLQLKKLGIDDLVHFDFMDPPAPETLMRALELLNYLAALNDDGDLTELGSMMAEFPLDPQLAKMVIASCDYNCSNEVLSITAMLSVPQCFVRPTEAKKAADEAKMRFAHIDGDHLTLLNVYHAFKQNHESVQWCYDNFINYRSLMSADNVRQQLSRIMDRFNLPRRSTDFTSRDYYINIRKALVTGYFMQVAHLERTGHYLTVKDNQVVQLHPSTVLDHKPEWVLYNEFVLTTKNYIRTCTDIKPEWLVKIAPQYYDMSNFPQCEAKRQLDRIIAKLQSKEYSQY
UniProt O43148: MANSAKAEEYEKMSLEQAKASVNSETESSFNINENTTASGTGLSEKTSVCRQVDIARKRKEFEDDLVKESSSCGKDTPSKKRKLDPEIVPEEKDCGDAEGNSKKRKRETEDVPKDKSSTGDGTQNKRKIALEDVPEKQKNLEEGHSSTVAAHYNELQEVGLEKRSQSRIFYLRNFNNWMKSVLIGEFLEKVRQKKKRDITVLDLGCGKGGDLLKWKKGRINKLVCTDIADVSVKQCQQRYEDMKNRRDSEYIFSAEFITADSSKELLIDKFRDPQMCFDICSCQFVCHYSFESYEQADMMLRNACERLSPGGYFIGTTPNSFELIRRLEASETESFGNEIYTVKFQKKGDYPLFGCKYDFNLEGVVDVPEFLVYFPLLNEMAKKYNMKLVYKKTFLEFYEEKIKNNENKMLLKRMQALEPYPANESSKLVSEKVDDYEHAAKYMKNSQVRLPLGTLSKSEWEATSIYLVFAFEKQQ

Molecular target: endogenous DHX15 (human (endogenous in HeLa)) (UniProt O43143)
Assay: co-IP; endogenous proteins, antibody on protein-G Sepharose, extracts of HeLa, HCC1809, U2OS and HEK293 cells, 2 h at 4°C, washes with 0.1 M NaCl, Western blot; sheep IgG as control; RNase A treatment of the IP in Fig 1F

RNMT (RNA guanine-7 methyltransferase) (from UniProt O43148 1-476) (enzyme)
binding: no binding
